Results deposited as PubChem BioAssay AID504764 (Drosophila RNAi Screening Center, 2011).
Assay: 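Knock-downs that raise or lower a Notch target reporter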 (primary screen). Cell system: Drosophila Kc167 cells. Reagent: long dsRNA against Drosophila genes. Time to read-out: about 5 days (4 days dsRNA, then 24 h after transfection). Treatment: transfection of constitutively active membrane-tethered Notch lacking the extracellular domain, read 24 h later. Detection: 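Light from a Notch-responsive E(spl)m3 luciferase reporter under active Notch, with control-promoter and no-Notch reporter wells to normalise; raw counts from paired wells a and b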. Direction: induced reporter light, run 1, well a and induced reporter light, run 1, well b: higher = more light from the Notch target reporter with active Notch; control promoter light, run 1, well a and control promoter light, run 1, well b: higher = more light from the viral control promoter (cell number, transfection, viability); uninduced reporter light, run 1, well a: higher = more light from the Notch target reporter without active Notch. Hit rule: 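Wells with low control signal or poorly matching duplicates excluded; duplicates averaged; per source plate, z beyond ±2 for induced/control log2 ratio or beyond ±1.8 for induced/uninduced marks a hit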. Calls: active = modifier hit (raised or lowered Notch signal); inactive = not a hit.
In all, the deposit lists about 22,000 reagents; below is an unselected part of those with a known target gene and a result. Of all reagents, 403 (1.9%) are marked active. 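Unnormalised raw counts per well; ratio z-scores behind the hit calls and whether each hit raises or lowers signal are not deposited.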 A plus sign joins genes that one reagent is predicted to hit. Not given: the amount of reagent.

gene | DRSC id | induced reporter light, run 1, well a | induced reporter light, run 1, well b | control promoter light, run 1, well a | control promoter light, run 1, well b | uninduced reporter light, run 1, well a | call
CG42272 | DRSC08766 | 2.25e5 | 1.67e5 | 1.72e5 | 1.73e5 | 13990 | inactive
CG42272 | DRSC22502 | – | – | – | – | – | inactive
Gcna (Germ cell nuclear acidic peptidase) | DRSC18553 | 1.81e5 | 1.68e5 | 1.96e5 | 2.44e5 | 10088 | inactive
Inx6 (Innexin 6) | DRSC20579 | 1.53e5 | 1.22e5 | 1.48e5 | 1.88e5 | 13345 | inactive
CG8531 | DRSC07209 | 1.59e5 | 1.42e5 | 1.91e5 | 1.88e5 | 11855 | inactive
cuff (cutoff) | DRSC06315 | 1.30e5 | 1.22e5 | 1.86e5 | 1.59e5 | 11145 | inactive
Pex7 (Peroxin 7) | DRSC10651 | 2.22e5 | 1.67e5 | 2.13e5 | 2.22e5 | 10665 | inactive
CG31462 (retired record) | DRSC14359 | 56920 | 66630 | 69940 | 64570 | 4590 | inactive
CG13717 (retired record) | DRSC08116 | 2.59e5 | 1.95e5 | 2.91e5 | 2.23e5 | 14480 | inactive
CG13717 (retired record) | DRSC08324 | 1.96e5 | 1.73e5 | 1.73e5 | 1.82e5 | 9680 | inactive
CG13717 (retired record) | DRSC08326 | 21895 | 15560 | 18110 | 21632 | 3205 | inactive
CG13717 (retired record) | DRSC21337 | – | – | – | – | – | inactive
Pex16 (Peroxin 16) | DRSC11750 | 1.08e5 | 1.23e5 | 78055 | 92495 | 9678 | inactive
Xe7 | DRSC12307 | 1.14e5 | 1.39e5 | 1.97e5 | 1.18e5 | 12015 | inactive
Ilp6 (Insulin-like peptide 6) | DRSC17906 | 1.19e5 | 1.06e5 | 2.19e5 | 2.31e5 | 8405 | inactive
CG32213 + CG12519 + 825-Oak + 1 more | DRSC09615 | 3.12e5 | 3.21e5 | 4.06e5 | 3.19e5 | 23200 | inactive
CG4022 | DRSC10395 | 1.67e5 | 1.33e5 | 1.63e5 | 1.29e5 | 8192 | inactive
Sox102F | DRSC17204 | 2.05e5 | 1.84e5 | 2.11e5 | 2.31e5 | 13490 | inactive
GramD1B (GRAM domain containing 1B) | DRSC00426 | 1.23e5 | 1.35e5 | 1.85e5 | 1.41e5 | 11300 | inactive
GramD1B (GRAM domain containing 1B) | DRSC00591 | 66590 | 70880 | 43495 | 46770 | 6015 | inactive
CG15177 | DRSC12557 | 66005 | 1.02e5 | 81590 | 55430 | 7745 | inactive
abs (abstrakt) | DRSC12372 | 1.23e5 | 1.08e5 | 74405 | 89555 | 9375 | inactive
Txl (Thioredoxin-like) | DRSC11310 | 1.82e5 | 1.52e5 | 2.40e5 | 2.10e5 | 7760 | inactive
CG1486 | DRSC20508 | 1.55e5 | 1.68e5 | 1.23e5 | 92825 | 11160 | inactive
CG15800 | DRSC04271 | 2.16e5 | 2.04e5 | 2.35e5 | 1.76e5 | 15490 | inactive
mtm (myotubularin) | DRSC03576 | 32710 | 39980 | 27100 | 28745 | 2810 | inactive
vrs (versager) | DRSC15832 | 88880 | 1.08e5 | 89840 | 91465 | 6005 | inactive

Next part, starting with the last 6 of the part before.
gene | DRSC id | induced reporter light, run 1, well a | induced reporter light, run 1, well b | control promoter light, run 1, well a | control promoter light, run 1, well b | uninduced reporter light, run 1, well a | call
abs (abstrakt) | DRSC12372 | 1.23e5 | 1.08e5 | 74405 | 89555 | 9375 | inactive
Txl (Thioredoxin-like) | DRSC11310 | 1.82e5 | 1.52e5 | 2.40e5 | 2.10e5 | 7760 | inactive
CG1486 | DRSC20508 | 1.55e5 | 1.68e5 | 1.23e5 | 92825 | 11160 | inactive
CG15800 | DRSC04271 | 2.16e5 | 2.04e5 | 2.35e5 | 1.76e5 | 15490 | inactive
mtm (myotubularin) | DRSC03576 | 32710 | 39980 | 27100 | 28745 | 2810 | inactive
vrs (versager) | DRSC15832 | 88880 | 1.08e5 | 89840 | 91465 | 6005 | inactive
Gyg (Glycogenin) | DRSC03850 | 32280 | 48010 | 36330 | 48830 | 3780 | inactive
Gyg (Glycogenin) | DRSC04556 | 49260 | 48200 | 60815 | 91510 | 2432 | inactive
Tps1 (Trehalose-6-phosphate synthase 1) | DRSC00269 | 2.00e5 | 2.22e5 | 1.76e5 | 1.74e5 | 18080 | inactive
CG14153 | DRSC10155 | 1.47e5 | 90430 | 1.24e5 | 1.51e5 | 7700 | inactive
Rpn8 (Regulatory particle non-ATPase 8) | DRSC04624 | 13775 | 11195 | 15670 | 21065 | 770 | inactive
Mst57Da (Male-specific RNA 57Da) | DRSC16744 | 1.08e5 | 1.09e5 | 1.90e5 | 1.54e5 | 9300 | inactive
Parp16 (Poly(ADP-ribose) polymerase 16) | DRSC06597 | 1.52e5 | 81485 | 1.24e5 | 1.11e5 | 11955 | inactive
CG2694 | DRSC18470 | 1.73e5 | 2.47e5 | 2.05e5 | 3.06e5 | 14485 | inactive
CG4069 | DRSC10396 | 1.04e5 | 80490 | 61190 | 40140 | 8245 | inactive
CG7139 | DRSC11611 | 1.36e5 | 1.34e5 | 68785 | 86735 | 9980 | inactive
CG11019 (retired record) | DRSC02117 | 35255 | 19435 | 16800 | 20665 | 2835 | inactive
CCAP-R (Crustacean cardioactive peptide receptor) | DRSC14891 | 1.73e5 | 1.75e5 | 1.99e5 | 1.77e5 | 12345 | inactive
CCAP-R (Crustacean cardioactive peptide receptor) | DRSC15967 | 1.45e5 | 1.32e5 | 1.65e5 | 1.87e5 | 12000 | inactive
Rbcn-3A (Rabconnectin-3A) | DRSC18314 | 1.39e5 | 1.86e5 | 2.88e5 | 2.89e5 | 10460 | inactive
Obp99d (Odorant-binding protein 99d) | DRSC15046 | 1.10e5 | 1.19e5 | 1.60e5 | 1.44e5 | 9435 | inactive
CG13502 | DRSC04147 | 44540 | 37860 | 40840 | 49645 | 1625 | inactive
KP78a + KP78b | DRSC16721 | 66850 | 77810 | 61820 | 44250 | 6635 | inactive
KP78a + KP78b | DRSC16722 | 58180 | 67445 | 67000 | 45635 | 7455 | inactive
Obp57e (Odorant-binding protein 57e) | DRSC05891 | 93605 | 96625 | 1.07e5 | 74835 | 8520 | inactive
dikar | DRSC09699 | 74910 | 78440 | 34930 | 10120 | 8270 | active
CG14834 | DRSC10204 | 1.79e5 | 1.83e5 | 1.75e5 | 1.27e5 | 5795 | inactive
CG11816 | DRSC19428 | 93905 | 85320 | 1.01e5 | 95280 | 7590 | inactive
CG15124 | DRSC06546 | 93170 | 86605 | 98375 | 1.01e5 | 7985 | inactive
